Measurements published in patent publication US20260070975A1.
Substitutions are numbered along the chain they refer to. These are yes or no findings as the source states them, for the method shown. A result given as binding can be weak or reduced; the word gives no strength.

B1: hSR1-1 (antibody, human IgG1, kappa, V domains shown)
VH: QVQLVQSGAEVKKPGASVKVSCKASGYTFTSYNMHWVRQAPGQGLEWMGVIYSGNGDTSYAQKFQGRVTMTADTSTSTAYMELSSLRSEDTAVYYCARERDTRFGNWGQGTLVTVSS
VL: DIQLTQSPSSLSASVGDRATITCRASESVDIYGNSFMHWYQQKPGKAPKLLIYLASNLESGVPSRFSGSGSGTDFTLTISSVQPEDFATYYCQQNNEDPYTFGQGTKLEIKR
B2: hSR1-5 (antibody, human IgG1, kappa, V domains shown)
VH: B1 VH
VL: B1 VL with G72R
B3: hSR1-4 (antibody, human IgG1, kappa, V domains shown)
VH: B1 VH with V20M, M48I, V68A, M70L, T74K
VL: B1 VL
B4: hSR1-3 (antibody, human IgG1, kappa, V domains shown)
VH: B1 VH with T74K
VL: B1 VL
B5: hSR1-6 (antibody, human IgG1, kappa, V domains shown)
VH: B1 VH with V20M, M48I, V68A, M70L
VL: B1 VL with G72R
B6: hSR1-2 (antibody, human IgG1, kappa, V domains shown)
VH: B1 VH with V20M, M48I, V68A, M70L
VL: B1 VL

biological target: His-tagged cynomolgus c-Kit (cynomolgus); experiment: ELISA, His-tagged antigen coated

Row | binding | Binder
1 | binds | B1
2 | binds | B2
3 | binds | B3
4 | binds | B4
5 | binds | B5
6 | binds | B6
